Reference: PubChem BioAssay AID1794845 (National Center for Advancing Translational Sciences (NCATS), 2023)
The whole screen tested about 6,900 compounds, of which fewer than 10 were called active. Calls come from the whole dose curve; as a rule, active = well fitted curve in the direction sought with a large enough effect; inconclusive = small, poorly fitted or top-dose-only effect, or another doubt; inactive = no such curve, though single readings can be large or run the other way. The list shows a part of the results.

Amino acid sequences for entries named in this document (tags omitted). A change or cut given only in a name is not applied to a line headed by its entry.
UniProt C7C422: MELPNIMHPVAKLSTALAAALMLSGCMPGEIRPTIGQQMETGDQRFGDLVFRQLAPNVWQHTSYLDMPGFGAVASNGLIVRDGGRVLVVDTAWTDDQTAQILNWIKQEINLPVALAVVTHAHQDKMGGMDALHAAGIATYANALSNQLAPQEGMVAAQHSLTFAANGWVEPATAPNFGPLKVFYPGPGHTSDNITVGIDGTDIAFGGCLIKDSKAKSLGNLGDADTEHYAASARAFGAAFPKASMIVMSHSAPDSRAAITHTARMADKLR

These compounds were tested against Metallo-beta-lactamase type 2 (Klebsiella pneumoniae) (UniProt C7C422) (assay: qHTS to identify inhibitors of the New Delhi Metallo-beta-lactamase (NDM): primary screen against the NCATS Gemini Collection). Details: NDM-1 enzyme, meropenem hydrolysis, absorbance 300 nm; at 38.4 µM (top of the series) unless noted.
Procedure, shortened: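 Meropenem hydrolysis (50 uM final) by 2 nM NDM-1 read as 300 nm absorbance after 30 min, following >30 min compound–enzyme preincubation in HEPES pH 7.0 with 1 uM ZnSO4 and 0.01% Tween20.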
Note: % of control where 0% means no effect.

Activity % (negative = inhibition), inactive:
Cc1ccc(C#N)c(NCc2cccnc2Oc2cccc(C(F)(F)F)c2)n1 2.34%
COCC1CN(C)CC12CCN(C(=O)CCc1ccc(OC)cc1)CC2 (stereo unspecified) -5.86%
CNC(=O)[C@@H]1C[C@H](n2cc(CNS(=O)(=O)c3cc(C)ccc3F)nn2)CN1 10.1%
Cc1nnc2n1CCC(NC(=O)CCCc1nc3ccccc3s1)CC2 (stereo unspecified) 5.53%
COc1cccc(CNC(=O)[C@@]23CCCC[C@H]2N(CCc2ccccc2)C(=O)CC3)c1 1.42%
Cc1nc(C2CC(O)C2)cc(N2CCC(c3nncn3C)CC2)n1 (stereo unspecified) 37.3%
CCOc1ccccc1CN1CCC2(Cc3ccccc3CNC2=O)C1 (stereo unspecified) 1.18%
CN(Cc1ccc(Oc2ncccn2)cc1)CC1CCN(CCc2ccc(F)cc2)CC1 3.29%
CN(C1CCc2nn(CC3CC3)c(=O)n2CC1)S(=O)(=O)c1cccnc1 (stereo unspecified) 0.54%
CNC(=O)[C@@H](CC(C)C)N1CCC[C@H]1C(=O)N1CCN(C)CC1 -0.541% [at 57.5 µM]
CC1=NS(=O)(=O)N(CCc2ccccc2)C=C1C(=O)O 6.08%
CCCCc1nn(CC(=O)N2CCCC2c2nc(C3CC3)no2)c(=O)n1CC (stereo unspecified) -0.052%
Cc1cccn2c(CC(=O)N3CCn4nc(CO)cc4C3)cnc12 58.7%
Cc1nc(C)c(C(=O)Nc2nn(Cc3ccccc3)c3cccc(OC(C)C)c23)o1 -4.28%
O=C(Nc1cccc(-c2nnc3n2CCCC3)c1)c1ccccn1 25.4%
CC1(C)CN(C(=O)c2ccc(Oc3ccccc3)o2)CC1(C)O (stereo unspecified) 5.45%
Cc1ccsc1CN1CCCOCCNC(=O)[C@@H]2CCCC[C@@H]21 -2.12%
O=S(=O)(c1cnc[nH]1)N1CCC(c2nc(CCOCC3CC3)no2)C1 (stereo unspecified) -2.63%
COc1cc(OC)nc(N2C[C@H]3OC(=O)N(Cc4ccccc4OC)[C@H]3C2)n1 54.2%
CC(=O)NC[C@@H]1C=C(C)[C@H](Cc2nnc(-c3cncn3C)o2)C[C@H]1C(C)C 0.199% [at 57.5 µM]
O=C(c1noc2c1CCCC2)N1CCOc2ccc(CN3CCN(c4ccccn4)CC3)cc2C1 -4.86%
COc1ccccc1C(=O)N1CC(N(C)c2ccccc2C)C1 -0.001%
COc1ccc(-c2cc(C(=O)NCc3cccnc3)c3c(c2)N(C)CCO3)cc1OC 2.63% [at 57.5 µM]
CCOC(=O)C1CCCN(C(=O)c2cc(-c3ccc(Cl)cc3Cl)c3nncn3n2)C1 (stereo unspecified) 9.14%
CC1CCN([C@@H]2[C@H](O)[C@H](CO)O[C@@H]2CNC(=O)c2cccs2)CC1 -0.0979% [at 57.5 µM]
O=C(CN1C(=O)C(c2ccccc2)=NC12CCCCCC2)NCC1CCCO1 (stereo unspecified) 66.9%
O=c1ncn(Cc2ccccc2)c2ccc(-c3ccoc3)nc12 30.1% [at 57.5 µM]
CCOC(=O)[C@@H]1CN([S+](=O)([O-])Cc2ccccc2)[C@H]2c3ccc(OC)cc3O[C@@H]12 8.8%
O=C(CCC1CCCC1)N1CC(N(Cc2ccccn2)C(=O)Nc2ccccc2)C1 -19.2%
C=CCNC(=O)C[C@@H]1CCN(C(=O)c2ccccc2)C[C@@H]1CC 4.93% [at 57.5 µM]
CC(c1ccccn1)N(C)Cc1ccc(S(C)(=O)=O)cc1 (stereo unspecified) 2.62%
COC(=O)CNC(=O)N1CCCCCCNC(=O)[C@@H]2C[C@@H](c3nc(-c4cccnc4)no3)C[C@@H]21 36.7%
CCC(=O)N(C1CCOCC1)C1CCN(S(=O)(=O)c2c(C)nn(C)c2C)CC1 20.6%
COCCNC(=O)[C@H]1C[C@H](Oc2cccnc2)CN1C(=O)Nc1cccc(C)c1 1.34%
CN(Cc1ccccc1)C(=O)CCc1nc(C2CCCN2C(=O)C2CCC2)no1 (stereo unspecified) -6.91%
CC(=O)c1c(C)nn(CCC(=O)N[C@@H]2CCOC[C@H]2OCCO)c1C -1.72%
COc1cccc(C(=O)NC2CCN(c3cc(-c4cccs4)[nH]n3)CC2)c1OC 0.767%
COC[C@H]1CCCN1Cc1cn(-c2ccccc2C)nc1-c1ccc(OC)c(F)c1 -0.765%
O=C(c1cc2cc(F)ccc2[nH]1)N1CCCC(CO)(Cc2cccc(Cl)c2)C1 (stereo unspecified) 3.74%
Cn1ccnc1CN1CCN(CC2(O)CNCCOC2)CC1 (stereo unspecified) 9.69%
CN1CCN([C@H]2CCN(C(=O)CCCc3cn[nH]c3)C[C@H]2CCC(=O)O)CC1 0.18%
COCCN1CCCCCC(O)c2cc(C(=O)Nc3ccc(C)cc3)ccc21 (stereo unspecified) -6.76%
Cc1cc(C)n2nc(C(=O)N3CCCC4(CNC(=O)O4)C3)cc2n1 (stereo unspecified) -0.656%
N#Cc1cccc(CN2CCCC(CNS(=O)(=O)Cc3ccccc3)C2)c1 (stereo unspecified) -0.423%
Cc1ccc(-c2ccc(N)nc2)c2cccnc12 4.97%
Cc1ccc(CNC(=O)CCc2nc(C3CCCN3S(C)(=O)=O)no2)o1 (stereo unspecified) 5.63%
COc1ccccc1C1CCN(Cc2cn(-c3ccccc3)nn2)CC1 -0.117%
CN(CCc1cnn(C)c1)C(=O)c1coc(COc2cccc(C(F)(F)F)c2)n1 2.03%
CCn1cc(-c2ccc(C)cc2)cc1C(=O)O 15.2%
COc1cccc(Nc2ncc3c(n2)C(C)(C(=O)NC2CCOCC2)CC3)c1 (stereo unspecified) 26.8% [at 57.5 µM]
O=C(Cc1ccccc1Cl)NC1CCN(c2cc(-c3cccs3)[nH]n2)C1 (stereo unspecified) 27%
Cc1nnc([C@@H]2CC(F)(F)CN2C(=O)c2nccc3ccccc23)o1 5.2%
Cc1ccccc1N1Cc2c(NCc3ccc(F)cc3)ncnc2N(C)CC1=O 21.2%
O=C(NCc1cccnc1)C1CCN(C2CCN(Cc3ccc4c(c3)CCO4)CC2)CC1 -1.25%
COc1ccc(CC(=O)N[C@H]2[C@H](O)[C@H](O)C[C@@H]2c2cccnc2)cc1 -3.76% [at 57.5 µM]
O=C1NC(=NC2CCCC2)C2(CCN(Cc3cccnc3)CC2)N1c1cc(F)cc(F)c1 -2.39%
Cc1cc2ncc(C(=O)N3CCOCC3)cn2n1 3.02% [at 57.5 µM]
Cc1cc(C#N)c(-c2ccccc2C(=O)N(C(C)C)C(C)C)nc1C 7.78%
CCCN(C)c1nccnc1OC1CCN(C(=O)c2cccc(OC)c2OC)C1 (stereo unspecified) 4.18%
Clc1cc(NCc2ccccn2)n2nccc2n1 8.98% [at 57.5 µM]
O=C1N[C@H](CC(=O)N2CCc3ccccc3C2)C(=O)Nc2ccccc21 0.372%
O=C(NCc1ccccc1)[C@@H]1Cc2nc[nH]c2CN1Cc1cccc(OC(F)(F)F)c1 28.9% [at 57.5 µM]
COCCN1C(=O)CC[C@]2(C(=O)N3CCCCCC3)CCCC[C@@H]12 4.02%
COc1ccc2c(c1)OCC(CNC(=O)c1scc3c1OCCO3)C2 (stereo unspecified) 0.535%
CNC(=O)[C@@H]1CN(S(=O)(=O)c2cccnc2)C[C@H]1C1CCN(C)CC1 -6.18%
CNC(=O)c1cc(C2CC2)nc2onc(C3CCN(C(=O)C4CCCCC4)CC3)c12 7.44%
CCCC(C)N1CC2(CCN(C(=O)c3ccc(C(C)=O)s3)CC2)OC1=O (stereo unspecified) 6.11%
Cc1ccc(CN2CCN(c3ncnc4onc(C)c34)CC2CCO)cc1 (stereo unspecified) 8.04%
Cc1cc(C)cc(-c2ccc(CN3CCCC(N[S+](C)(=O)[O-])C3)cc2)c1 (stereo unspecified) -7.62%
O[C@@H]1C[C@@H](c2nc(Cc3ccc(F)cc3Cl)no2)N(Cc2ccc(OC(F)(F)F)cc2)C1 10.6%
CCCn1cnc2c1CN(C(=O)c1ccc(F)cc1)[C@H](C(=O)OC)C2 1.92% [at 57.5 µM]
CCC(=O)N1CCc2ccc(C(=O)NC3CCCCC3)cc21 -3.89%
CC(=O)N1CCN(C(=O)c2nc(N)nc3c2CCCC3)CC(O)C1 (stereo unspecified) 36%
Cc1cccc(O[C@H]2COCCN(c3nc4ccccc4s3)C2)n1 -0.272% [at 57.5 µM]
O=C(O)CCc1nc(C2CCOCC2)n[nH]1 -8.02%
Cc1cnccc1NCCn1ccnc1-c1cc2n(n1)CCCNC2 5.67%
O[C@H]1[C@H](NCc2ccc(F)cc2)[C@H]2CO[C@H](O2)[C@@H]1N1CCC(Cc2ccccc2)CC1 -1.32% [at 57.5 µM]
O=C(NCc1ccnc2[nH]ccc12)c1cc(F)ccc1Br 5.26%
CC(C)c1nc2c(c(-c3ccc(O)cc3)n1)CCN(C(=O)C1CCCC1)CC2 3.06%
Cc1ncc(CN2CCCC2C(=O)Nc2ccc(-c3cccc(F)c3)cc2)[nH]1 (stereo unspecified) 5.35%
NCCC(=O)N1CCC2(CC1)CN(C(=O)c1ccc(Cl)cc1)CCO2 3.42%
O=C1NC(=NC2CCCCC2)C2(CCN(CC3CCCCC3)C2)N1c1cccnc1 (stereo unspecified) 6.7%
CC(C)CN1C(=O)CCc2cc(NC(=O)C3CCC3)ccc21 2.56%
O=C(N[C@@H]1CN(C(=O)c2ccccn2)CC[C@@H]1CO)C1CC1 4.03%
COc1ccc(OC)c(CNC(=O)C2(CCO)CC23CCOCC3)c1 (stereo unspecified) -0.329%
COc1cccc(-c2ccccc2NC(=O)C2CCN(Cc3ccccc3F)CC2)c1 -2.34%

Among those listed so far, six have a thiophene ring, fused or not.
Activity % (negative = inhibition), inactive:
Cc1ccsc1CN1CCCOCCNC(=O)[C@@H]2CCCC[C@@H]21 -2.12%
CC1CCN([C@@H]2[C@H](O)[C@H](CO)O[C@@H]2CNC(=O)c2cccs2)CC1 -0.0979% [at 57.5 µM]
COc1cccc(C(=O)NC2CCN(c3cc(-c4cccs4)[nH]n3)CC2)c1OC 0.767%
O=C(Cc1ccccc1Cl)NC1CCN(c2cc(-c3cccs3)[nH]n2)C1 (stereo unspecified) 27%
COc1ccc2c(c1)OCC(CNC(=O)c1scc3c1OCCO3)C2 (stereo unspecified) 0.535%
CCCC(C)N1CC2(CCN(C(=O)c3ccc(C(C)=O)s3)CC2)OC1=O (stereo unspecified) 6.11%
